PubChem BioAssay AID1508588 – Peter MacCallum Cancer Centre | 2020
Assay: 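Knock-downs boosting vemurafenib effects on melanoma cell growth or lactate release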 (primary screen). Cells: human WM266.4 melanoma cells (BRAF V600 mutant). Reagents: siRNA pool against human genes, 40 nM. Duration: 96 h from transfection to read-out. Challenge: vemurafenib 300 nM (about IC25), added 48 h after transfection, for 48 h; comparison arm got DMSO vehicle only. Detection: 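Cell gain (DAPI nuclei at end minus before drug, mean of two replicates) and medium lactate by absorbance per cell, both as ratio to non-targeting siRNA, also grouped into fold-change classes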. Scale: cell gain with vemurafenib: higher = more cell gain than with non-targeting siRNA; lactate per cell with vemurafenib: higher = more lactate made per cell. Hit rule: 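Enhancement is called by pairing each knock-down's vehicle-arm and drug-arm fold-change classes for viability or glycolysis; which class combinations qualify is not given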. Meaning of the calls: active = enhances vemurafenib effect; inactive = no enhancement seen.
Shown is an unselected part of about 18,000 reagents tested. 790 of them (4.4%) were called active. 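Calls rest on a combination of fold-change classes in drug and vehicle arms, not all shown here.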 Entries without a mark were called inactive.

gene symbol	PubChem SID	cell gain with vemurafenib	lactate per cell with vemurafenib
MIR1915HG	SID152155822	0.48	0.78
PATE1	SID135621665	0.52	0.88
NFKBIL1	SID134316306	1.02	0.8
LETM1	SID134323330	0.33	0.83
OR4K2	SID135625147	0.14	1.48
OLFM2	SID152154666	0.22	1.21
HSD3B1	SID135621685	0.87	0.64
CHIA	SID152151173	0.34	1.06
SNCB	SID134315737	0.48	1.42
GALNT12	SID152155290	0.84	0.56
CRYGA	SID135622537	0.07 (active)	0.64
HSD17B13	SID134322375	1.28	0.82
BAG2	SID134316270	0.82	0.82
GBP4	SID152148313	0.57	0.64
CRYGC	SID134317377	0.61	1.03
PTPN14	SID134313377	0.76	0.82
NCBP1	SID152151862	0.39	1.32
CDH11	SID134317717	0.5	1
COX17	SID134316385	0.68	1.41
CDCA5	SID152152815	0.25	1.31
NEK9	SID56478903	0.54	1.16
EXOC3	SID152150335	0.6	0.84
F13A1	SID152150878	0.91	0.62
EOMES	SID134321417	0.74	0.48
LAMTOR4	SID152156293	0.87	0.68
PCDHGB5	SID134317520	0.64	0.76
ITGB4	SID152153653	0.42	1.09
DAZ2	SID135624113	0.35	1.36
RAB39B	SID152153767	0.36	1.08
SLCO1B3	SID135624141	0.85	0.91
PLCD4	SID134310724	0.55	1
GOT1L1	SID152154186	0.93 (active)	0.44
CYP2U1	SID152153711	0.31	0.82
TRPM4	SID135621205	1.32	1.25

Active calls (from the list above):
gene symbol	PubChem SID	cell gain with vemurafenib	lactate per cell with vemurafenib
CRYGA	SID135622537	0.07 (active)	0.64
GOT1L1	SID152154186	0.93 (active)	0.44
